Results are given in words; binding and its absence hold for the method and conditions named. In cells and extracts the contact can be indirect. Some entries that bind do so weakly or less than the wild type.
Biological target: BCL2 (human (endogenous in TPC-1)) (UniProt P10415)
Assay: co-IP; anti-BCL2 antibody on magnetic beads, RIPA lysates of TPC-1 cells, incubated 1 hour at room temperature; blots with anti-Beclin1, Bax and BCL2 antibodies; cells untreated or treated with ABT737 for 8 hours

By UniProt entry, the sequences of proteins in these tests, tags left out.
UniProt P10415: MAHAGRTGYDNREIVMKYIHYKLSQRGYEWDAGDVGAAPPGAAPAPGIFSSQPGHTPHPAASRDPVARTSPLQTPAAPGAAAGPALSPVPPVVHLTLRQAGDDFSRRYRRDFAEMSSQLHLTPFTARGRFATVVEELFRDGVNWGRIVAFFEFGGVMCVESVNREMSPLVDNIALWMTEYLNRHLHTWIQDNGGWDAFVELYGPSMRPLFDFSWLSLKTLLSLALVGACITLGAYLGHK
UniProt Q14457: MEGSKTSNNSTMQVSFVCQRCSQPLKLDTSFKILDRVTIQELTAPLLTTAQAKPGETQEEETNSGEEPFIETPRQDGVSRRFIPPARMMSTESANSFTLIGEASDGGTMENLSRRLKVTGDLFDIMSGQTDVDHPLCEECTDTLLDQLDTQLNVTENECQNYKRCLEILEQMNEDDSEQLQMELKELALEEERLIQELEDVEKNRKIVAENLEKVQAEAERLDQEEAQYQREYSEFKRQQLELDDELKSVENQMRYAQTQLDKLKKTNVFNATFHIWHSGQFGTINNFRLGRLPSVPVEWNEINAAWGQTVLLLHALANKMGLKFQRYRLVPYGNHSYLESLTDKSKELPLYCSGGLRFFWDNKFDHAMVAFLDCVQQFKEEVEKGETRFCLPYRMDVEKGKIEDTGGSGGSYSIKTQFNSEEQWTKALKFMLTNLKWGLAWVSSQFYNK

With Beclin1 (from UniProt Q14457 1-450) as the substance, how does the binding read?
Its binding is “binds”.

Source: PMC10941729
